{"source": "patent US10335503B2", "about": "“Compound that specifically binds to AMPA receptor” (Public University Corporation Yokohama City University, priority 2015, dated 2019)", "tested_on": "Ca channel (Type L, Dihydropyridine)", "assay": "Receptor binding panel: Ca channel (Type L, Dihydropyridine)", "settings": "Positive substance, concentration not given", "note": "For at least one compound, name, drawing or mass did not settle the structure."}
{"smiles": "CCOC(=O)C1=C(C)NC(C)=C(C(=O)OC)C1c1cccc([N+](=O)[O-])c1", "note": "(stereo not shown) [Nitrendipine, reference compound]", "values": [{"measurement": "Inhibition (%)", "result": 99.61, "unit": "%"}]}
